For test [1], the target named is T1, rice phytochrome C (phyC), native (rice, Oryza sativa L. cv. Nipponbare (endogenous in seedlings)), Q10CQ8.
T1 chain: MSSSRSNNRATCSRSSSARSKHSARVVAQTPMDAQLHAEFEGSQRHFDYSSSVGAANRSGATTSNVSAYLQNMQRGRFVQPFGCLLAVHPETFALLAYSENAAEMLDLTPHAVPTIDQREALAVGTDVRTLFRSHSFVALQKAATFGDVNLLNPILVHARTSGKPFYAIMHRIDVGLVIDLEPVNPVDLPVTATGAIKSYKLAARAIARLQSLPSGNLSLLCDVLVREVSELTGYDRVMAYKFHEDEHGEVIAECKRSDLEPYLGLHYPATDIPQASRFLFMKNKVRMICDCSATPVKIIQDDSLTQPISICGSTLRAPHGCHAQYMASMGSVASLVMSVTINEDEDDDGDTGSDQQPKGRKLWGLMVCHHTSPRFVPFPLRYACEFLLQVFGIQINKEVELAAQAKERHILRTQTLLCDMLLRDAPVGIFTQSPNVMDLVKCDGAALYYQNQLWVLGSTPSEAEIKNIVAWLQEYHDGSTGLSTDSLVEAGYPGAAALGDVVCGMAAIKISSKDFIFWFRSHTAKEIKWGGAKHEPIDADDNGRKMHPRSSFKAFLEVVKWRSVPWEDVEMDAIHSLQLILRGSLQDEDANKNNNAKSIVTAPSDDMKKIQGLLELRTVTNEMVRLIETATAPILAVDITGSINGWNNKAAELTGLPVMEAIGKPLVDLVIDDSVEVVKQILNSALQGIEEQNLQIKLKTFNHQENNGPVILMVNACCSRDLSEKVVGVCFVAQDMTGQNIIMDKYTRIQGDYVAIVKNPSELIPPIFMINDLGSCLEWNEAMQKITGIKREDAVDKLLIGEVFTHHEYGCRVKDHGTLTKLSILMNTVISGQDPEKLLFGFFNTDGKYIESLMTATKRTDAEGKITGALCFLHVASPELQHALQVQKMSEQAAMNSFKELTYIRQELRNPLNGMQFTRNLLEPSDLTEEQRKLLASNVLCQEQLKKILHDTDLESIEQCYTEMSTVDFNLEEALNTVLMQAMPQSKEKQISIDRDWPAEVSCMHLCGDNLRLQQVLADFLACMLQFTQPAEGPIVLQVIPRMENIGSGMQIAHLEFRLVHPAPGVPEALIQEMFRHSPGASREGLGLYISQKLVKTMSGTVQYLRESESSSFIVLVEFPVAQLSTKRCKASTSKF
The experiment in a line: SEC; protein extracts (1 mg total soluble protein) of etiolated seedlings of WT and phytochrome single and double mutants on Superdex 200 HR 10/30; 50 mM Na-phosphate pH 7.0, 150 mM NaCl, 4 C; fractions immunoblotted with anti-PHYA, anti-PHYB, anti-PHYC; column calibrated with molecular weight standards. Particulars: remark: other sources report otherwise. A general note: Size exclusion chromatography separates by hydrodynamic size, large species first.

Test [2] addresses T2, recombinant rice phyC with phytochromobilin (rice), Q10CQ8.
T2 chain: T1 chain
The experiment in a line: SEC; recombinant phyA or phyC from E. coli fractionated on the same column; fractions #17-#24 immunoblotted with anti-His tag or anti-phytochrome antibodies; both purified. As to conditions: remark: other sources report otherwise.

No constants are given. Whether binding was seen depends on the method and setting.

B1: rice phytochrome C (phyC), native, Q10CQ8 1-1137 (protein)
chain: T1 chain
Turning to B1, the binding entry in test [1] is listed as “no binding”.

B2: recombinant rice phyC with phytochromobilin, Q10CQ8 1-1137 (protein)
chain: T1 chain
modifications: here or on the partner: phytochromobilin as chromophore; phytochromobilin as chromophore
For the molecule B2, the binding entry in test [2] was “no binding”.

Values taken from article PMC4031084, “The Phytochrome B/Phytochrome C Heterodimer Is Necessary for Phytochrome C-Mediated Responses in Rice Seedlings” (PLoS ONE, 2014).
